## Melanoma cell counts after drug treatment

Source: doi:10.1371/journal.pone.0140310, primary screening data, rounded.

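Human melanoma cells were exposed to one drug for 72 h in 1,536-well plates and read by automated microscopy after fixing and staining. The read-out is cell count (nuclei) in % of the DMSO control; lower values mean stronger growth inhibition or killing. Every drug was used at one fixed concentration, the higher of two screened. The file gives one value for each drug and line, without errors, so small differences may be noise.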
Only some of the drugs and lines screened are listed, without regard to their results.
An entry leaves out what has no value listed here.
A dash means that no value is listed here.

Compounds and concentrations:
tamatinib: COc1cc(Nc2ncc(F)c(Nc3ccc4c(n3)NC(=O)C(C)(C)O4)n2)cc(OC)c1OC at 2 µM
VX-702: NC(=O)c1ccc(N(C(N)=O)c2c(F)cccc2F)nc1-c1ccc(F)cc1F at 2 µM
lenalidomide: Nc1cccc2c1CN(C1CCC(=O)NC1=O)C2=O (centres undefined) at 5 µM
cediranib: COc1cc2c(Oc3ccc4[nH]c(C)cc4c3F)ncnc2cc1OCCCN1CCCC1 at 2 µM
tipifarnib: Cn1cncc1[C@@](N)(c1ccc(Cl)cc1)c1ccc2c(c1)c(-c1cccc(Cl)c1)cc(=O)n2C at 0.05 µM
NVP-BEZ235: Cn1c(=O)n(-c2ccc(C(C)(C)C#N)cc2)c2c3cc(-c4cnc5ccccc5c4)ccc3ncc21 at 0.02 µM
midostaurin: CO[C@@H]1[C@H](N(C)C(=O)c2ccccc2)C[C@H]2O[C@]1(C)n1c3ccccc3c3c4c(c5c6ccccc6n2c5c31)C(=O)NC4 at 0.4 µM
pazopanib: Cc1ccc(Nc2nccc(N(C)c3ccc4c(C)n(C)nc4c3)n2)cc1S(N)(=O)=O at 2 µM
stibogluconate: O=C(O)[C@@H]1[O][Sb](=[O])([O][Sb]2(=[O])[O][C@H]([C@H](O)CO)[C@H](O)[C@H](C(=O)O)[O]2)[O][C@H]([C@H](O)CO)[C@@H]1O (some centres undefined) at 10 µM
IMD-0354: O=C(Nc1cc(C(F)(F)F)cc(C(F)(F)F)c1)c1cc(Cl)ccc1O at 0.08 µM
KU-0063794: COc1ccc(-c2ccc3c(N4CCOCC4)nc(N4C[C@@H](C)O[C@@H](C)C4)nc3n2)cc1CO at 0.1 µM
AZD7762: NC(=O)Nc1cc(-c2cccc(F)c2)sc1C(=O)N[C@H]1CCCNC1 at 0.1 µM
GSK650394: O=C(O)c1ccc(-c2c[nH]c3ncc(-c4ccccc4)cc23)cc1C1CCCC1 at 0.8 µM
gemcitabine: Nc1ccn([C@@H]2O[C@H](CO)[C@@H](O)C2(F)F)c(=O)n1 at 0.002 µM
GW0742: Cc1cc(SCc2sc(-c3ccc(C(F)(F)F)c(F)c3)nc2C)ccc1OCC(=O)O at 10 µM
lestaurtinib: C[C@]12O[C@H](C[C@]1(O)CO)n1c3ccccc3c3c4c(c5c6ccccc6n2c5c31)CNC4=O at 0.02 µM
SU6656: CN(C)S(=O)(=O)c1ccc2c(c1)/C(=C/c1cc3c([nH]1)CCCC3)C(=O)N2 at 2 µM
indole-3-carbinol: OCc1c[nH]c2ccccc12 at 4 µM
nutlin-3: COc1ccc(C2=N[C@@H](c3ccc(Cl)cc3)[C@@H](c3ccc(Cl)cc3)N2C(=O)N2CCNC(=O)C2)c(OC(C)C)c1 at 0.5 µM
veliparib: C[C@]1(c2nc3c(C(N)=O)cccc3[nH]2)CCCN1 at 7 µM
Src-I1: COc1cc2ncnc(Nc3ccc(Oc4ccccc4)cc3)c2cc1OC at 10 µM
docetaxel: CC(=O)O[C@@]12CO[C@@H]1C[C@H](O)[C@@]1(C)C(=O)[C@H](O)C3=C(C)[C@@H](OC(=O)[C@H](O)[C@@H](NC(=O)OC(C)(C)C)c4ccccc4)C[C@@](O)([C@@H](OC(=O)c4ccccc4)[C@H]21)C3(C)C at 0.0005 µM
dovitinib: CN1CCN(c2ccc3nc(-c4c(N)c5c(F)cccc5[nH]c4=O)[nH]c3c2)CC1 at 0.5 µM
CP-690550: C[C@@H]1CCN(C(=O)CC#N)C[C@@H]1N(C)c1ncnc2[nH]ccc12 at 5 µM
STA-4783: CN(NC(=O)CC(=O)NN(C)C(=S)c1ccccc1)C(=S)c1ccccc1 at 0.03 µM
YM155: COCC[n+]1c2c(n(Cc3cnccn3)c1C)C(=O)c1ccccc1C2=O at 0.002 µM
etoposide: COc1cc([C@@H]2c3cc4c(cc3[C@@H](O[C@@H]3O[C@@H]5CO[C@@H](C)O[C@H]5[C@H](O)[C@H]3O)[C@H]3COC(=O)[C@H]23)OCO4)cc(OC)c1O at 0.1 µM
BI-D1870: CC(C)CCN1c2nc(Nc3cc(F)c(O)c(F)c3)ncc2N(C)C(=O)C1C (centres undefined) at 1 µM
dorsomorphin: c1cc(-c2cnn3cc(-c4ccc(OCCN5CCCCC5)cc4)cnc23)ccn1 at 2 µM
bortezomib: CC(C)C[C@H](NC(=O)[C@H](Cc1ccccc1)NC(=O)c1cnccn1)B(O)O at 0.005 µM

Drug | LOX IMVI | LB2518-MEL | SK-MEL-2 | UACC-62 | G-361 | A101D | UACC-257 | 501mel | SK-MEL-30 | MZ2-MEL | COLO 829 | RPMI-7951 | IPC-298 | WM3526 | WM115 | MeWo
docetaxel | 52.8 | 35.3 | 22.3 | 52.1 | 15.4 | 42.0 | 66.9 | - | 52.8 | 41.6 | 40.0 | 22.8 | 37.3 | 29.0 | 41.1 | 24.1
bortezomib | 31.3 | 3.3 | 47.7 | 57.8 | 0.8 | 14.5 | 66.6 | - | 38.1 | 4.9 | 15.4 | 7.5 | 7.8 | 29.1 | 18.8 | 13.4
KU-0063794 | 91.1 | 93.1 | 85.3 | 88.2 | 97.2 | 109 | 111 | 114 | 70.9 | 97.3 | 80.9 | 140 | 78.3 | 109 | 107 | 80.9
indole-3-carbinol | 168 | 119 | 117 | 106 | 143 | 106 | 118 | - | 121 | 147 | 105 | 97.3 | 100 | 130 | 126 | 135
Src-I1 | 80.7 | 135 | 85.6 | 74.4 | 69.2 | 69.2 | 84.0 | 83.9 | 91.6 | 72.0 | 99.6 | 52.0 | 83.9 | 60.6 | 71.6 | 88.7
pazopanib | 72.9 | 88.4 | 94.8 | 83.3 | 84.2 | 88.7 | 89.0 | - | 92.6 | 72.7 | 99.7 | 69.7 | 75.2 | 100 | 84.5 | 94.0
tipifarnib | 74.4 | 70.4 | 63.8 | 72.9 | 81.0 | 101 | 99.6 | - | 97.4 | 92.4 | 83.4 | 61.2 | 91.2 | 74.3 | 87.2 | 95.7
dovitinib | 138 | 53.2 | 102 | 78.3 | 79.3 | 78.8 | 89.0 | - | 84.8 | 47.2 | 81.2 | 126 | 75.7 | 77.6 | 67.5 | 53.6
AZD7762 | 94.4 | 79.7 | 99.5 | 69.8 | 90.0 | 73.5 | 110 | - | 96.5 | 119 | 73.2 | 57.1 | 115 | 63.8 | 71.2 | 102
GSK650394 | 82.8 | 89.9 | 72.3 | 94.7 | 52.9 | 77.6 | 83.1 | - | 92.4 | 84.9 | 83.6 | 79.9 | 77.1 | 97.2 | 93.9 | 87.0
BI-D1870 | 93.0 | 106 | 84.8 | 82.7 | 82.8 | 58.1 | 89.9 | 89.2 | 89.4 | 116 | 102 | 73.7 | 89.0 | 68.0 | 97.8 | 84.3
STA-4783 | 70.6 | 36.5 | 64.5 | 57.5 | 40.5 | 73.3 | 91.9 | - | 104 | 121 | 67.5 | 107 | 85.9 | 97.0 | 15.4 | 21.0
VX-702 | 113 | 78.5 | 95.7 | 67.7 | 98.7 | 121 | 105 | - | 94.1 | 102 | 91.6 | 107 | 87.0 | 89.2 | 104 | 105
dorsomorphin | 87.2 | 79.0 | 80.7 | 84.6 | 64.5 | 65.8 | 81.9 | 44.3 | 111 | 71.0 | 84.7 | 76.8 | 88.4 | 80.5 | 81.0 | 70.2
lenalidomide | 89.7 | 79.0 | 76.2 | 78.3 | 73.5 | 90.4 | 105 | - | 95.2 | 85.9 | 77.1 | 141 | 79.4 | 75.0 | 109 | 79.5
YM155 | 48.0 | 31.0 | 36.4 | 48.8 | 80.8 | 63.8 | 15.5 | - | 82.7 | 26.8 | 79.8 | 34.9 | 48.7 | 27.9 | 63.7 | 22.0
cediranib | 65.4 | 106 | 84.0 | 120 | 77.0 | 113 | 98.5 | - | 95.6 | 82.7 | 79.2 | 86.7 | 94.8 | 80.9 | 80.0 | 88.7
midostaurin | 45.5 | 74.3 | 72.3 | 68.3 | 49.8 | 71.4 | 74.1 | - | 62.0 | 77.0 | 63.0 | 39.5 | 80.5 | 91.6 | 40.5 | 72.5
NVP-BEZ235 | 96.1 | 73.6 | 63.6 | 69.8 | 50.9 | 56.4 | 102 | - | 73.6 | 81.9 | 86.1 | 81.5 | 74.5 | 62.4 | 66.2 | 74.9
lestaurtinib | 99.0 | 58.7 | 82.9 | 60.4 | 86.2 | 64.6 | 98.5 | - | 79.6 | 77.0 | 87.4 | 100 | 70.7 | 67.3 | 53.7 | 79.9
nutlin-3 | 67.7 | 81.8 | 105 | 65.7 | 78.8 | 72.3 | 83.9 | - | 98.5 | 102 | 71.3 | 106 | 101 | 96.8 | 89.4 | 110
gemcitabine | 44.5 | 54.8 | 83.7 | 77.4 | 30.7 | 63.5 | 103 | - | 97.5 | 73.5 | 36.9 | 49.8 | 44.4 | 92.3 | 54.9 | 42.8
veliparib | 100 | 85.8 | 85.8 | 64.3 | 102 | 95.7 | 83.8 | - | 90.3 | 96.8 | 79.0 | 104 | 104 | 84.5 | 69.9 | 80.8
stibogluconate | 104 | 94.8 | 97.7 | 73.0 | 78.9 | 86.9 | 101 | - | 96.5 | 89.9 | 111 | 99.8 | 89.1 | 91.4 | 78.5 | 100
GW0742 | 106 | 82.5 | 109 | 74.5 | 97.3 | 90.1 | 98.2 | 97.0 | 87.9 | 90.3 | 101 | 112 | 93.5 | 96.8 | 85.8 | 70.3
tamatinib | 29.0 | 109 | 83.1 | 81.4 | 90.5 | 32.0 | 87.3 | - | 118 | 105 | 94.3 | 52.6 | 88.3 | 79.3 | 71.8 | 101
IMD-0354 | 99.0 | 95.7 | 88.7 | 81.8 | 110 | 97.4 | 97.6 | - | 98.8 | 98.6 | 102 | 98.5 | 86.6 | 97.5 | 119 | 90.0
CP-690550 | 110 | 97.4 | 83.8 | 96.5 | 87.9 | 113 | 108 | - | 93.3 | 129 | 84.9 | 131 | 106 | 110 | 126 | 102
etoposide | 110 | 72.8 | 61.3 | 60.7 | 94.2 | 89.3 | 87.0 | - | 92.3 | 77.5 | 111 | 83.5 | 72.5 | 83.7 | 67.3 | 85.7
SU6656 | 86.5 | 66.3 | 77.9 | 78.0 | 64.1 | 78.2 | 86.1 | - | 92.9 | 108 | 96.4 | 52.3 | 86.7 | 74.4 | 56.6 | 71.5

The first 2 entries again:

{"drug": "docetaxel", "LOX IMVI": 52.8, "LB2518-MEL": 35.3, "SK-MEL-2": 22.3, "UACC-62": 52.1, "G-361": 15.4, "A101D": 42.0, "UACC-257": 66.9, "SK-MEL-30": 52.8, "MZ2-MEL": 41.6, "COLO 829": 40.0, "RPMI-7951": 22.8, "IPC-298": 37.3, "WM3526": 29.0, "WM115": 41.1, "MeWo": 24.1}
{"drug": "bortezomib", "LOX IMVI": 31.3, "LB2518-MEL": 3.3, "SK-MEL-2": 47.7, "UACC-62": 57.8, "G-361": 0.8, "A101D": 14.5, "UACC-257": 66.6, "SK-MEL-30": 38.1, "MZ2-MEL": 4.9, "COLO 829": 15.4, "RPMI-7951": 7.5, "IPC-298": 7.8, "WM3526": 29.1, "WM115": 18.8, "MeWo": 13.4}